These results are taken from paper PMC7078210.

The chains behind the UniProt entries cited, without tags or fusion partners.
UniProt A0A1S4BMC2, entry or part of it D183A: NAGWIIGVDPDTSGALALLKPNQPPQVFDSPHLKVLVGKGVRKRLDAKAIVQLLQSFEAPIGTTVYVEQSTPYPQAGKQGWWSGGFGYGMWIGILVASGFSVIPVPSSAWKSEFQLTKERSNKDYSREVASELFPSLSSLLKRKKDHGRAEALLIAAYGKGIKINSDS
UniProt A0A1S4BMC2, entry or part of it K185D: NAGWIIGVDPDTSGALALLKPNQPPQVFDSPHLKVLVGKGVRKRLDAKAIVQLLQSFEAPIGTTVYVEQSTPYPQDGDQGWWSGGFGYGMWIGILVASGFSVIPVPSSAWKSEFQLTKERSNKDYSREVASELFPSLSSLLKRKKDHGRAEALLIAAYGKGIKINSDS
UniProt A0A1S4BMC2, entry or part of it K218D: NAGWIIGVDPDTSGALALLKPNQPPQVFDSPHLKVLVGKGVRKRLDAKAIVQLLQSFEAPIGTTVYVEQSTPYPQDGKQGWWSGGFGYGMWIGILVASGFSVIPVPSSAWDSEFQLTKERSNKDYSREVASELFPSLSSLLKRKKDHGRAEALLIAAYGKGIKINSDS
UniProt A0A1S4BMC2, entry or part of it R149D: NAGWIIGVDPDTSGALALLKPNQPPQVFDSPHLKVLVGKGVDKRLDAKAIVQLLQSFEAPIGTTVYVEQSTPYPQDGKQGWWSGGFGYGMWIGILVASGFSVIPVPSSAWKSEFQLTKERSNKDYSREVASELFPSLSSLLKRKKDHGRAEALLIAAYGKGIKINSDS
UniProt A0A1S4BMC2, entry or part of it K252D R250D K251D K252D: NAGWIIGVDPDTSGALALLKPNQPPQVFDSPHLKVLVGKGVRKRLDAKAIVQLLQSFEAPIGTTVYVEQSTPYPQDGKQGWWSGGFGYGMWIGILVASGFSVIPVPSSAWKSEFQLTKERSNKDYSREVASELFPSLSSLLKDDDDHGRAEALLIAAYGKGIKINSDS
UniProt A0A1S4BMC2, entry or part of it R149D K185D K218D K225D: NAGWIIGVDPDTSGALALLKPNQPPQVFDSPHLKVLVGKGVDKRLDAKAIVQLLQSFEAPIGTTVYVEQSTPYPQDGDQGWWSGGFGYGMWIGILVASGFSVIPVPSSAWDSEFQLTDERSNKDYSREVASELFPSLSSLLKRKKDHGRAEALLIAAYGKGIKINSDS
UniProt A0A1S4BMC2, entry or part of it: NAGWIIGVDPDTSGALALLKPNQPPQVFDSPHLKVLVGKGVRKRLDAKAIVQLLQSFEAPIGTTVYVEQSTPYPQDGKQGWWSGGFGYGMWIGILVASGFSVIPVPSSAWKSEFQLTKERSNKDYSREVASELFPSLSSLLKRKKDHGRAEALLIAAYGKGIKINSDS

Common to all, as to assay: EMSA
Background: A gel shift assay detects complexes by their altered migration in electrophoresis.

For data set [1], the target named is NtMOC1 D183A (Nicotiana tabacum) (UniProt A0A1S4BMC2). Particulars: 5 mM EDTA, partially decreased, EMSA: 50 mM Tris-HCl pH 8.0, 1 mM DTT, 10% glycerol, 25 C, 30 min, HJ 250 nM, protein 0-1000 nM, 6% native PAGE, no MgCl2, recombinant protein, protein details: 6xHis N-term, removed (DrICE), label: none (GelRed stain), folded or branched DNA.
Data set [2] deals with NtMOC1 K185D (Nicotiana tabacum) (UniProt A0A1S4BMC2). Particulars: 5 mM EDTA, equivalent to WT, EMSA: 50 mM Tris-HCl pH 8.0, 1 mM DTT, 10% glycerol, 25 C, 30 min, HJ 250 nM, protein 0-1000 nM, 6% native PAGE, no MgCl2, recombinant protein, protein details: 6xHis N-term, removed (DrICE), label: none (GelRed stain), folded or branched DNA.
The target in data set [3] is NtMOC1 K218D (Nicotiana tabacum) (UniProt A0A1S4BMC2). Particulars: 5 mM EDTA, equivalent to WT, EMSA: 50 mM Tris-HCl pH 8.0, 1 mM DTT, 10% glycerol, 25 C, 30 min, HJ 250 nM, protein 0-1000 nM, 6% native PAGE, no MgCl2, recombinant protein, protein details: 6xHis N-term, removed (DrICE), label: none (GelRed stain), folded or branched DNA.
In data set [4] the target is NtMOC1 R149D (Nicotiana tabacum) (UniProt A0A1S4BMC2). Particulars: 5 mM EDTA, equivalent to WT, EMSA: 50 mM Tris-HCl pH 8.0, 1 mM DTT, 10% glycerol, 25 C, 30 min, HJ 250 nM, protein 0-1000 nM, 6% native PAGE, no MgCl2, recombinant protein, protein details: 6xHis N-term, removed (DrICE), label: none (GelRed stain), folded or branched DNA.
The target in data set [5] is NtMOC1 R250/K251/K252D R250D,K251D,K252D (Nicotiana tabacum) (UniProt A0A1S4BMC2). As to conditions: 5 mM EDTA, total loss of binding, EMSA: 50 mM Tris-HCl pH 8.0, 1 mM DTT, 10% glycerol, 25 C, 30 min, HJ 250 nM, protein 0-1000 nM, 6% native PAGE, no MgCl2, recombinant protein, protein details: 6xHis N-term, removed (DrICE), label: none (GelRed stain), folded or branched DNA.

Data set [6] concerns the target NtMOC1 Tetra-M R149D,K185D,K218D,K225D (Nicotiana tabacum) (UniProt A0A1S4BMC2). As to conditions: 5 mM EDTA, total loss of binding, EMSA: 50 mM Tris-HCl pH 8.0, 1 mM DTT, 10% glycerol, 25 C, 30 min, HJ 250 nM, protein 0-1000 nM, 6% native PAGE, no MgCl2, recombinant protein, protein details: 6xHis N-term, removed (DrICE), label: none (GelRed stain), folded or branched DNA.

Data set [7] addresses NtMOC1 WT (Nicotiana tabacum) (UniProt A0A1S4BMC2). Particulars: 5 mM EDTA, EMSA: 50 mM Tris-HCl pH 8.0, 1 mM DTT, 10% glycerol, 25 C, 30 min, HJ 250 nM, protein 0-1000 nM, 6% native PAGE, no MgCl2, recombinant protein, protein details: 6xHis N-term, removed (DrICE), label: none (GelRed stain), folded or branched DNA.

For at least one entry, the source does not settle the construct or the ends of the probe. For some of these results: A negative result means that nothing was seen under these conditions. For some of these results: At least one verdict was read from the data and is not stated in words by the source. For some of these results: Weaker means in comparison with the reference protein, sequence or condition of that experiment.

Regarding “GGGCAAAGATGTCCCTCTGTTGTAATCG / CCAGTGCCTTGCTGGGACATCTTTGCCC / TAGACAGCTCCATCCAGCAAGGCACTGG / CGATTACAACAGAGGATGGAGCTGTCTA [X2 (CCGG) HJ]”, the binding result in data set [1] was “binds more weakly”; in data set [2], “binds”; in data set [3], “binds”; in data set [4], “binds”; in data set [5], “no binding”; in data set [6] it was “no binding”. Further, the binding result in data set [7] is reported as “binds”.
